Assay results published in patent publication US20210322524A1.
Results are given in words; binding and its absence hold for the method and conditions named. For some of these results: In cells and extracts the contact can be indirect. Some results given as binding are weak or reduced against the parent protein; the word gives no strength. For some of these results: Where a sequence is shown, tags or fusion partners need not be part of it. One block for each binder: values may come before it.

The chains behind the UniProt entries cited, without tags or fusion partners.
UniProt Q8K1M6: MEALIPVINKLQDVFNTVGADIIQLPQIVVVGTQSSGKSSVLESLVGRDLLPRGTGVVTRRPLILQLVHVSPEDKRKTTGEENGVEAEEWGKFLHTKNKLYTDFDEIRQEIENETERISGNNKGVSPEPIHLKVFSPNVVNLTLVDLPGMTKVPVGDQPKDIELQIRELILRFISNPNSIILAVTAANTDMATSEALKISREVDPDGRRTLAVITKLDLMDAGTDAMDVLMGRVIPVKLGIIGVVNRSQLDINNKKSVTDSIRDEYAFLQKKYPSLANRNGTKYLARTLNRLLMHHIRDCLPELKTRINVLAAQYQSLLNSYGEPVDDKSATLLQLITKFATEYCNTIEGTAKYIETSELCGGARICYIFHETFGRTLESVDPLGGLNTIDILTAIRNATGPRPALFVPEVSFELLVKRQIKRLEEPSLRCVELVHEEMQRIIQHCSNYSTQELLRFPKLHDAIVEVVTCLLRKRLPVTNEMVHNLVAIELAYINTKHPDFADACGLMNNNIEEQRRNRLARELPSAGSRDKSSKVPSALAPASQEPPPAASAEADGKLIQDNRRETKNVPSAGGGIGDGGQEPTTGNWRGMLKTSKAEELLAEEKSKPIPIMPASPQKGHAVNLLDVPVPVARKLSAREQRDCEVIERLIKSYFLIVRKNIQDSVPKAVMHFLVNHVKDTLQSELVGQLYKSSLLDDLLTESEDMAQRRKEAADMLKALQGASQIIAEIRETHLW

Columns and labels:
[1] = biological target: T1, Drp1 (endogenous, human cells and tissue) (human), O00429; assay: IP analysis with truncated mutants; conditions: remark: other sources report otherwise
[2] = biological target: T1, Drp1 (endogenous, human cells and …); assay: IP of total lysates of transfected HEK293 cells; conditions: remark: other sources report otherwise
[3] = biological target: Drp1 (endogenous, mouse striatal cells and mouse striatum) (mouse) (UniProt Q8K1M6); assay: co-IP, mouse cells and striatal extracts (FIG. 1C-E)
[4] = biological target: Drp1 (endogenous, mouse striatal cells and mouse striatum) (mouse) (UniProt Q8K1M6); assay: immunoprecipitation of striatal lysates

binding [1]: binds | binding [2]: binds
B1: ATAD3A-Flag protein (human ATAD3A wildtype, Flag-tagged), Q9NVI7 1-586 (protein, UniProt Q9NVI7 1-586, looked up, not shown: small tags and cut ends)
chain: MSWLFGINKGPKGEGAGPPPPLPPAQPGAEGGGDRGLGDRPAPKDKWSNFDPTGLERAAKAARELEHSRYAKDALNLAQMQEQTLQLEQQSKLKEYEAAVEQLKSEQIRAQAEERRKTLSEETRQHQARAQYQDKLARQRYEDQLKQQQLLNEENLRKQEESVQKQEAMRRATVEREMELRHKNEMLRVEAEARARAKAERENADIIREQIRLKAAEHRQTVLESIRTAGTLFGEGFRAFVTDWDKVTATVAGLTLLAVGVYSAKNATLVAGRFIEARLGKPSLVRETSRITVLEALRHPIQVSRRLLSRPQDALEGVVLSPSLEARVRDIAIATRNTKKNRSLYRNILMYGPPGTGKTLFAKKLALHSGMDYAIMTGGDVAPMGREGVTAMHKLFDWANTSRRGLLLFVDEADAFLRKRATEKISEDLRATLNAFLYRTGQHSNKFMLVLASNQPEQFDWAINDRINEMVHFDLPGQEERERLVRMYFDKYVLKPATEGKQRLKLAQFDYGRKCSEVARLTEGMSGREIAQLAVSWQATAYASEDGVLTEAMMDTRVQDAVQQHQQKMCWLKAEGPGRGDEPSPS

binding [3]: binds | binding [4]: binds
B2: ATAD3A (endogenous, mouse cells and mouse striatum) (protein, UniProt Q925I1 2-591, looked up)
chain: SWLFGIKGPKGEGTGPPLPLPPAQPGAEGGGDRGAGDRPSPKDKWSNFDPTGLERAAKAARELEHSRHAKEALSLAQMQEQTLQLEQQSKLKEYEAAVEQLKSEQIRVQAEERRKTLTEETRQHQARAQYQDKLARQRYEDQLKQQQLLNEENLRKQEESVQKQEAIRRATVEREMELRHKNEMLRVEAEARARAKADRENADIIREQIRLKAAEHRQTILESIRTAGTLLGEGFRAFVTDWDKVTATVAGLTLLAVGVYSAKNATSVAGRYIEARLGKPSLVRETSRISVLEALRHPIQVSRRLVSRPQDALEGVILSPSLEARVRDIAIATRNTKKNKSLYRNVLMYGPPGTGKTLFAKKLALHSGMDYAIMTGGDVAPMGREGVTAMHKVFDWASTSRRGLLLFVDEADAFLRKRATEKISEDLRATLNAFLHRTGQHSSKFMLVLASNQPEQFDWAINDRIDEMVCFALPQREERERLVRMYFDKYVLKPATEGKQRLKVAQFDYGKKCSEVAQLTEGMSGREIAQLAVAWQAMAYSSEDGVLTEAMMDARVQDAVQQHQQKMQWLKVERPDSQTNKPPHPSLLSC
